Assay results from PubChem BioAssay AID2685 (National Center for Advancing Translational Sciences (NCATS), 2010).
The other results are listed elsewhere or left out. These are further read-outs of the screen, such as a control signal, another cell line or another target. No call is given for them. Compounds called inactive in the main read-out are mostly missing here. Words in brackets tell the shape of the fitted curve; partial curves, single points and poor fits give uncertain potencies.

Test: qHTS Assay for Lipid Storage Modulators in Drosophila S3 Cells;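 as to cell number change: cells counted by Cell Tracker Red CMTPX staining in the red channel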
Conditions: BODIPY lipid droplet fluorescence, 18-24 h; for cell number change: measured here: cell count max response, cells fed with added oleic acid
Outline: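 Drosophila S3 cells got compounds at several concentrations plus oleic acid (400 uM solution). Laser-scanning cytometry with 488 nm excitation read lipid droplets at 500-530 nm and cells at 575-640 nm. Percent activity was relative to 20 uM Triacsin C.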

[1] = measured here: cell number channel AC50, cells fed with added oleic acid
[2] = measured here: lipid fluorescence (Fed channel) AC50, cells fed with added oleic acid

| SMILES | cell number change [%] | AC50 [1] | AC50 [2] |
| --- | --- | --- | --- |
| CCc1ccc(OS(=O)(=O)c2cn(C)c(=O)n(C)c2=O)cc1 | -16.8 | 164 nM [falling, full curve, poor fit] | – |
| CCc1ccccc1NC(=O)CN(C)C(=O)COc1ccc(C)nc1[N+](=O)[O-] | 7.6 | – | 18400 nM [rising, single point] |
| O=S(=O)(c1ccc(F)cc1)N1CCCC1 | 18.6 | – | 580 nM [rising, single point] |
| CCOc1ccccc1/C=N/OCC(=O)NCc1ccc(F)cc1 | 30.4 | 23100 nM [rising, single point] | – |
| CCN(CC(=O)NCc1cccs1)C(=O)c1ccc(S(=O)(=O)Nc2ccccc2F)cc1 | 3.61 | – | – |
| CCCn1c(SCC(=O)Nc2ccc3c(c2)OCO3)nc2c1c(=O)n(C)c(=O)n2C | -9.83 | – | 4.61 nM [rising, full curve, poor fit] |
| CCc1ccc(NC(=O)CCc2c(C)nn(-c3ccc(N4CCCCC4)nn3)c2C)cc1 | -1.22 | 5.17 nM [rising, full curve, poor fit] | – |
| Nc1nc2ccccc2n1CCOc1ccc(Br)cc1 | -50.3 | 10300 nM [falling, partial curve] | 580 nM [falling, single point] |
| CSc1nnc(N(CCC#N)CCC#N)s1 | 3.14 | – | 20600 nM [rising, single point] |
| Cc1cc(C)c(C(=O)O)c(Cl)n1 | 36.7 | 1840 nM [rising, single point] | – |
| C#CCOCCOCCOCCNc1nc(N2CCN(C(=O)[C@H](Cc3cc4ccccc4[nH]3)n3cc([C@@H](N)CC(C)C)nn3)CC2)nc(N2CCN(C(=O)[C@H](Cc3cc4ccccc4[nH]3)n3cc([C@@H](N)CC(C)C)nn3)CC2)n1 | -40.2 | 29100 nM [falling, single point] | – |
| Cc1nc(Cc2nnc(SCc3nc(N)nc(Nc4ccccc4C)n3)o2)cs1 | -7.96 | – | 164 nM [rising, full curve, poor fit] |
| COc1ccc(NC(=O)C2CCN(c3nc(C)nc4c3CCC4)CC2)cc1 | -4.53 | 116 nM [falling, single point] | – |
| CCOc1ccc(/C=N/NC(=O)c2[nH]c3ccc(C)cc3c2C)cc1 | 16.2 | – | 29100 nM [rising, single point] |
| CCN(CC)S(=O)(=O)c1cccc(-c2cn3cccnc3n2)c1 | 30 | 16400 nM [rising, partial curve] | 3660 nM [rising, partial curve] |
| O=C(/C=C/c1ccccn1)c1ccc(Br)cc1O | 3.13 | – | 517 nM [rising, full curve, poor fit] |
| COc1ccc(Br)cc1CNC(=O)CN1C(=O)C(c2ccccc2)Oc2cccnc21 (stereo unspecified) | -12.8 | – | 820 nM [falling, full curve] |
| CCCCN(C)CCCNC(=O)CC1Oc2ccccc2NC1=O (stereo unspecified) | -10.2 | – | 2590 nM [falling, partial curve] |
| CSc1nsc(/C=C/Nc2ccc(F)cc2)c1C#N | – | 1640 nM [rising, partial curve] | 4110 nM [rising, partial curve, poor fit] |
| Cc1ccc(OCCNC(=O)c2ccc3ccccc3n2)cc1 | -2.63 | – | 3160 nM [falling, partial curve] |

| SMILES | cell number change [%] | AC50 [1] | AC50 [2] |
| --- | --- | --- | --- |
| O=C(CN1CCSCC1)N/N=C/c1ccc(F)c(F)c1 | 3.62 | – | – |
| O=C(CCCC(=O)N(CC(=O)NC1CCCCC1)Cc1ccc2c(c1)OCO2)Nc1ccccn1 | 59.1 | 10300 nM [rising, partial curve] | 11600 nM [rising, partial curve] |
| CCOc1ccc(NC(=O)C2CCCN(S(=O)(=O)c3c(C)nn(C)c3C)C2)cc1 (stereo unspecified) | 33.7 | 16400 nM [rising, single point] | – |
| Cc1ccc(C#N)c(SCc2ccccc2F)n1 | 17.1 | – | 2910 nM [rising, partial curve] |
| CCC(=O)NNc1ncnc2ccccc12 | 16.2 | – | 206 nM [rising, partial curve, poor fit] |
| Cc1ccc(S(=O)(=O)N(C(=O)c2ccncc2)c2ccc(OC(=O)c3ccncc3)c3ccccc23)c(C)c1 | 36.4 | 29100 nM [rising, single point] | – |
| CS(=O)(=O)C1=NN2C(=N)/C(=C\c3ccc(OCCOc4ccccc4)cc3)C(=O)N=C2S1 | 6.34 | – | 1840 nM [rising, single point] |
| CN(C)c1ccnc2sc3c(=O)n(Cc4ccccc4)cnc3c12 | -2.22 | – | 5800 nM [rising, partial curve] |
| O=C(CCN1C(=O)c2ccccc2C1=O)NCc1ccc(Cl)cc1 | 10.4 | – | 580 nM [rising, single point] |
| C=C(C)CC(Nc1ccc(OC)cc1)c1ccco1 (stereo unspecified) | -2.79 | – | 3660 nM [rising, single point] |
| COc1ccc(CNC(=O)c2[nH]c(C)c(C(C)=O)c2C)cc1 | -5.71 | – | – |
| O=C(Nc1ccc(-c2nc3ncccc3o2)cc1)c1ccco1 | 16.2 | 1030 nM [rising, partial curve] | – |
| Cc1cc(C)c2c(c1)/C(=c1/sc3n(c1=O)CN(c1ccccc1)CN=3)C(=O)N2 | 10.3 | 92 nM [rising, full curve] | 146 nM [rising, full curve, poor fit] |
| Cc1c(Nc2c3ccccc3nc3ccccc23)c(=O)n(-c2ccccc2)n1C | -34.5 | 32600 nM [falling, single point] | 29100 nM [falling, single point] |
| Oc1ccc(C[C@H]2CNCCN2CCc2cccc3ccccc23)cc1 | 20.3 | – | 2060 nM [rising, partial curve] |
| Cc1cc(C)nc(-n2nc(C)c3c(C)c(C)c(C)nc32)n1 | 12.3 | – | – |
| COc1ccc(NC(=O)C2CCCN(S(=O)(=O)c3ccc4c(c3)CCCN4C(C)=O)C2)cc1Cl (stereo unspecified) | -30 | 2310 nM [falling, partial curve] | – |
| COC(=O)c1sccc1NC(=S)N1CCN(c2ccc(F)cc2)CC1 | 8.36 | – | 517 nM [rising, single point] |
| CC(/C=C/c1ccc2c(c1)OCO2)=N/NC(=O)C1COc2ccccc2O1 (stereo unspecified) | 5.63 | – | 29.1 nM [rising, full curve, poor fit] |
| Oc1ccc(/C=C/c2ccnc3ccccc23)cc1 | -15.7 | – | 7310 nM [rising, partial curve] |

Given with each value named: part of the list above
O=C(CCCC(=O)N(CC(=O)NC1CCCCC1)Cc1ccc2c(c1)OCO2)Nc1ccccn1
  cell number change [%]: 59.1; AC50 [1]: 10300 nM [rising, partial curve]; AC50 [2]: 11600 nM [rising, partial curve]
CS(=O)(=O)C1=NN2C(=N)/C(=C\c3ccc(OCCOc4ccccc4)cc3)C(=O)N=C2S1
  cell number change [%]: 6.34; AC50 [2]: 1840 nM [rising, single point]
O=C(Nc1ccc(-c2nc3ncccc3o2)cc1)c1ccco1
  cell number change [%]: 16.2; AC50 [1]: 1030 nM [rising, partial curve]
COc1ccc(NC(=O)C2CCCN(S(=O)(=O)c3ccc4c(c3)CCCN4C(C)=O)C2)cc1Cl (stereo unspecified)
  cell number change [%]: -30; AC50 [1]: 2310 nM [falling, partial curve]

Next part.

| SMILES | cell number change [%] | AC50 [1] | AC50 [2] |
| --- | --- | --- | --- |
| COc1ccccc1OCC(=O)NN=C(Cc1ccccc1)Cc1ccccc1 | -45.3 | 231 nM [falling, full curve, poor fit] | 116 nM [falling, full curve, poor fit] |
| CCOc1ccc(S(=O)(=O)NCc2ccc(Cl)cc2)c2cccnc12 | 12.7 | 291 nM [rising, partial curve, poor fit] | 32600 nM [falling, single point] |
| CSCC[C@H](NC(=O)N1CCn2c1nc1ccccc12)C(=O)NCC1CCCO1 (stereo partly specified) | 3.63 | – | – |
| CCCNS(=O)(=O)c1ccc(OCC(=O)NCc2ccc3c(c2)OCO3)cc1 | -2.03 | – | 7310 nM [rising, partial curve] |
| CC1CCN(C(=O)C2CCN(S(=O)(=O)c3cnc[nH]3)CC2)CC1 | -210 | 18400 nM [falling, partial curve] | – |
| CCCCN(C)CCNC(=O)C1CCN(S(=O)(=O)c2cccc3nsnc23)CC1 | – | – | 580 nM [falling, single point] |
| Cc1c(Cl)cccc1N(CC(=O)N1CCCCCC1)S(C)(=O)=O | 3.94 | – | 4110 nM [falling, partial curve, poor fit] |
| O=C(OCC(=O)N1CCc2ccccc21)c1ccccc1F | 20.6 | – | 326 nM [falling, single point] |
| CCN1C(=O)[C@H]2[C@@H](c3ccc(C)cc3)N3C(=O)N(c4ccc(C(F)(F)F)cc4)C(=O)[C@@]3(Cc3ccccc3)[C@H]2C1=O | 10.2 | – | – |
| COc1ccc(N2CCCn3c2nc2c3c(=O)n(Cc3ccccc3F)c(=O)n2C)c(OC)c1 | 10.2 | 731 nM [rising, single point] | 461 nM [falling, single point] |
| CCCOC(=O)C1=C(C)NC2=C(C(=O)CCC2)C1c1cccc(OC)c1OC (stereo unspecified) | -20.4 | – | 164 nM [rising, full curve, poor fit] |
| CCc1ccc(N(C(=O)c2ccco2)C(C(=O)NC2CCCC2)c2ccncc2)cc1 (stereo unspecified) | -10 | – | – |
| CCCCNC(=S)N(CCN(CC)CC)Cc1cc2cc3c(cc2[nH]c1=O)OCO3 | 4.39 | – | – |
| NS(=O)(=O)c1ccc(NC(=S)NCCc2ccccc2)cc1 | 4.46 | – | – |
| COC(=O)C1=C(C)N(Cc2ccccc2)C(=NCc2ccc(OC)cc2)N[C@H]1c1cccc(F)c1 | -8.38 | – | 29100 nM [rising, single point] |
| COc1ccc(C(=O)C2CCCN(C(=O)c3noc4c3CCCC4)C2)c(C)c1 (stereo unspecified) | -27.1 | – | – |
| CCc1nnc(NC(=O)CN2CCN(Cc3cccc(OC)c3)CC2)s1 | 7.94 | – | 29100 nM [rising, single point] |
| COC(=O)C12CCC(C)(c3nc4ccccc4nc31)C2(C)C (stereo unspecified) | -21.5 | 3260 nM [falling, single point] | 4110 nM [falling, single point] |
| Cc1ccc(N2CC(C(N)=O)CC2=O)cc1 (stereo unspecified) | -0.215 | – | 23100 nM [falling, partial curve] |
